{
  "source": "paper PMC3642328",
  "about": "“Ataxia Telangiectasia-Mutated (ATM) Kinase Activity Is Regulated by ATP-driven Conformational Changes in the Mre11/Rad50/Nbs1 (MRN) Complex*^([image sbox.jpg])” (The Journal of Biological Chemistry, 2013)",
  "test_system": "MR(FKBP)N del676-685,Rad50,split,chain (human)",
  "experiment": "EMSA",
  "settings": "0.5 mM AMP-PNP, 5 mM MgCl2, Nbs1 present, lanes 17-18 with 200 nM AP20187, EMSA (Fig. 6A): 10 nM DNA, 25 mM MOPS pH 7.0, 20 mM Tris pH 8.0, 5 mM MgCl2, 8% glycerol, 80 mM NaCl, 2 mM DTT, temperature not stated, recombinant protein, protein details: FKBP12 derivative fused to Rad50 1-675, label: Cy5 at 3' end of TP2109",
  "note": "The exact form of at least one protein or probe is not confirmed.",
  "data": [
    {"sequence": "CTTGCATGCCTCAGCTATTCCGGATTATTCATACCGTCCCA / TGGGACGGTATGAATAATCCGGAATAGCTGAGGCATGCAAGTCTA [TP2151/TP2109]", "values": [
      {"measurement": "binding result", "result": "binds"}
    ]}
  ]
}
